Experimental data from patent US20150320880A1, “ANTIBODY DRUG CONJUGATES” (NOVARTIS AG, priority 2013, published 2015).
Results are given in words; binding and its absence hold for the method and conditions named. Some binding calls cover weakened binding; strength is not graded here.

Chains of the proteins cited; added tags and fusions are not shown. Lines headed by an entry give the natural chain unless they say otherwise; changes in a name come on top. A line that says so, or that is headed by a name, gives the form on record, which may keep a tag or linker.
mutant human cKIT on GIST-T1 cells (P10721, form named): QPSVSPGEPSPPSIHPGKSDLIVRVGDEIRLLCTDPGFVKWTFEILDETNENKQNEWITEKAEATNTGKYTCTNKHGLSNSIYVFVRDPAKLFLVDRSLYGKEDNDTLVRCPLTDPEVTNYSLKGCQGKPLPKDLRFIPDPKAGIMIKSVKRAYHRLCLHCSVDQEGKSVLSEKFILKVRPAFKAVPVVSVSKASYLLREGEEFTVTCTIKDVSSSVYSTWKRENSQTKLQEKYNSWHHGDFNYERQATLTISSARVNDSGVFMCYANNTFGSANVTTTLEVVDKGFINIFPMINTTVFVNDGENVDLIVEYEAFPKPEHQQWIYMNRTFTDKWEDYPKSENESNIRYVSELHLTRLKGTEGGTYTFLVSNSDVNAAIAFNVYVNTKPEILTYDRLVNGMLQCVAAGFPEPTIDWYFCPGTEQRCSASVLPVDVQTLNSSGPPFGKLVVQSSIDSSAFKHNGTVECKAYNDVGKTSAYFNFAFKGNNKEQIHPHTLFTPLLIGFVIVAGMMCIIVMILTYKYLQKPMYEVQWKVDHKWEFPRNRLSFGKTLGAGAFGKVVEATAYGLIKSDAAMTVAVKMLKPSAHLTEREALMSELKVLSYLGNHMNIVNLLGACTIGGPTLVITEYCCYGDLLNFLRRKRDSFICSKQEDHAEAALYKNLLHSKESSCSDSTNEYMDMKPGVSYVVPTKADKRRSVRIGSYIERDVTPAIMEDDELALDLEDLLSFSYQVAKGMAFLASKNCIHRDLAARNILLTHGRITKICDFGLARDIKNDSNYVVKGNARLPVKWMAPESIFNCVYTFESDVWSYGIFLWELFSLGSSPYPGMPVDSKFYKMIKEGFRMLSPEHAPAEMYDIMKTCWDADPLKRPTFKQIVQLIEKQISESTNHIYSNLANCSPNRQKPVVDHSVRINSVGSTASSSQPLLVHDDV

Target: mutant human cKIT on GIST-T1 cells (human) (UniProt P10721)
Test: flow cytometry on GIST-T1 cells, 10 ug/ml antibody

B1: NEG085 (antibody, human IgG1, kappa, V domains shown)
VH: EVQLVESGGGLVQPGGSLRLSCAASGFAFSGYYMAWVRQAPGKGLEWVANINYPGSSTYYLDSVKGRFTISRDNAKNSLYLQMNSLRAEDTAVYYCARGDYYGTTYWYFDVWGQGTTVTVSS
VL: DIQMTQSPSSLSASVGDRVTITCRASQSISSYLNWYQQKPGKAPKLLIYYTSRLQSGVPSRFSGSGSGTDFTLTISSLQPEDFATYYCQQGRRLWSFGGGTKVEIKR
notes: Humanized, optimized variant of 9P3; human IgG1 kappa; also called unconjugated NEG085
Which binding does the source give for B1 here?
Its binding is “binds”.
